Test results: the supplement of paper PMC10849652
Some of the results follow.

Protein sequences, listed by entry. Tags and fused reporters are not part of them. Lines headed by an entry give the natural chain unless they say otherwise; changes in a name come on top.
UniProt Q9NRH1: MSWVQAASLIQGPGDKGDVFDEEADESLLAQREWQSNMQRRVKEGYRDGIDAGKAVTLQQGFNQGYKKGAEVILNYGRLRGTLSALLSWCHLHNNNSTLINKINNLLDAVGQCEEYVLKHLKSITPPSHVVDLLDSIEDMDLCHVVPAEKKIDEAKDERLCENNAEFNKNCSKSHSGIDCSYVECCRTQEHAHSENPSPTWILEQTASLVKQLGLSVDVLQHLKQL
UniProt Q9C0B5: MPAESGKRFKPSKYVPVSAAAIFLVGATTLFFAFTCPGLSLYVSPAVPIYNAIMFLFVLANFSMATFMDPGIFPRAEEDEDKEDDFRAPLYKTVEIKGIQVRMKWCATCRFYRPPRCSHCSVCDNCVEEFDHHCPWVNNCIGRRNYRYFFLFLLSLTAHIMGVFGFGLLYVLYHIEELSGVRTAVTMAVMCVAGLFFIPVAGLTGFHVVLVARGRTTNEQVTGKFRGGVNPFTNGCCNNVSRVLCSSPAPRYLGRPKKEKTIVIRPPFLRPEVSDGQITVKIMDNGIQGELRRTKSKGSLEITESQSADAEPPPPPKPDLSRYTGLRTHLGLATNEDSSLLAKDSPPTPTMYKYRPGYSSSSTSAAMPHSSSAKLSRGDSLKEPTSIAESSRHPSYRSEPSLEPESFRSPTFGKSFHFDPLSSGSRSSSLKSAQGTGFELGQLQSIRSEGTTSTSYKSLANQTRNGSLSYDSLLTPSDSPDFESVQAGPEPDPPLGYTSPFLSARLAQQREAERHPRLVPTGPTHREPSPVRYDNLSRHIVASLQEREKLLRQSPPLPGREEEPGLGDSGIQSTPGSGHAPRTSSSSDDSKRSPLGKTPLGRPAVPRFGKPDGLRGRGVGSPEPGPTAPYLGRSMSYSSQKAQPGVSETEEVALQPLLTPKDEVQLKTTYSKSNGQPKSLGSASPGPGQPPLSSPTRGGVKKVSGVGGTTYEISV
UniProt P62699: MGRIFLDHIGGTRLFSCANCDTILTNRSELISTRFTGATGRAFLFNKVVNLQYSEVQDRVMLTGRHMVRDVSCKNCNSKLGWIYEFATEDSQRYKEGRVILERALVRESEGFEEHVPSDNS
UniProt Q9C0E2: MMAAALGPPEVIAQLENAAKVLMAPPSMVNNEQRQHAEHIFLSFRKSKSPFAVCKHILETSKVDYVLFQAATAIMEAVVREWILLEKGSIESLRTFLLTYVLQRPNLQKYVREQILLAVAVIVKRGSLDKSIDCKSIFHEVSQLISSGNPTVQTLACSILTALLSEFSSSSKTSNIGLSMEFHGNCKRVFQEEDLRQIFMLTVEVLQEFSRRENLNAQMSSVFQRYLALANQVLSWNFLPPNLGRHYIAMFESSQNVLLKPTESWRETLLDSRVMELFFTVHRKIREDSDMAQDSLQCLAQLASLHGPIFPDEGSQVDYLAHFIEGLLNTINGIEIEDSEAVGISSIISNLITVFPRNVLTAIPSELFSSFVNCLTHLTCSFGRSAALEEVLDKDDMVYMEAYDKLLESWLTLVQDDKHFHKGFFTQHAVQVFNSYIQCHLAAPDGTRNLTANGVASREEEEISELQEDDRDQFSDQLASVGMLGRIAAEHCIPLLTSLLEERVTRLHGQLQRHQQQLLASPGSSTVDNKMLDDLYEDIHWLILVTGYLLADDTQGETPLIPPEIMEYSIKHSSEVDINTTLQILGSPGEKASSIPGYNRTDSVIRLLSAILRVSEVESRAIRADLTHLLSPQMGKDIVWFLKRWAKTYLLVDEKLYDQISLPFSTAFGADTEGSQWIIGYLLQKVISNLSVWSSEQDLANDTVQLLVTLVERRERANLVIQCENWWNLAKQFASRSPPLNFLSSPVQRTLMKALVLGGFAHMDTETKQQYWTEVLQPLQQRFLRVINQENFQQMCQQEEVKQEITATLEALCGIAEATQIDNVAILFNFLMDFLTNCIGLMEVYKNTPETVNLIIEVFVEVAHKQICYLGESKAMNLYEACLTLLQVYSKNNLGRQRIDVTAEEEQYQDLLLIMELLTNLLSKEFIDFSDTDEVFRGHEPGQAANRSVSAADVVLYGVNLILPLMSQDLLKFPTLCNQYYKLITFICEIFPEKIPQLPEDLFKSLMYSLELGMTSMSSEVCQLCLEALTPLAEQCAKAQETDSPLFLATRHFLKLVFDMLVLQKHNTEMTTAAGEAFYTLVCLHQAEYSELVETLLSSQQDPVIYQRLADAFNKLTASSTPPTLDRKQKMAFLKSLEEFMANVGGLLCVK
UniProt Q5VVQ6: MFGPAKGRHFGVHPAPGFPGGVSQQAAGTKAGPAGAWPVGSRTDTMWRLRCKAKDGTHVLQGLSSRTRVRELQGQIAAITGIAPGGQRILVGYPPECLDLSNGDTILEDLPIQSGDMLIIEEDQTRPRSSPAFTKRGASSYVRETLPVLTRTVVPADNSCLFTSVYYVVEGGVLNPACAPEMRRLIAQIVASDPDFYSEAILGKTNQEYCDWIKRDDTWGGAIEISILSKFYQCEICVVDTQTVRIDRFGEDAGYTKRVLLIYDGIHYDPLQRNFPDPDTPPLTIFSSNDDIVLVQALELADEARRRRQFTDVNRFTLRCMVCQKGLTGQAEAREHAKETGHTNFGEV
UniProt P37275: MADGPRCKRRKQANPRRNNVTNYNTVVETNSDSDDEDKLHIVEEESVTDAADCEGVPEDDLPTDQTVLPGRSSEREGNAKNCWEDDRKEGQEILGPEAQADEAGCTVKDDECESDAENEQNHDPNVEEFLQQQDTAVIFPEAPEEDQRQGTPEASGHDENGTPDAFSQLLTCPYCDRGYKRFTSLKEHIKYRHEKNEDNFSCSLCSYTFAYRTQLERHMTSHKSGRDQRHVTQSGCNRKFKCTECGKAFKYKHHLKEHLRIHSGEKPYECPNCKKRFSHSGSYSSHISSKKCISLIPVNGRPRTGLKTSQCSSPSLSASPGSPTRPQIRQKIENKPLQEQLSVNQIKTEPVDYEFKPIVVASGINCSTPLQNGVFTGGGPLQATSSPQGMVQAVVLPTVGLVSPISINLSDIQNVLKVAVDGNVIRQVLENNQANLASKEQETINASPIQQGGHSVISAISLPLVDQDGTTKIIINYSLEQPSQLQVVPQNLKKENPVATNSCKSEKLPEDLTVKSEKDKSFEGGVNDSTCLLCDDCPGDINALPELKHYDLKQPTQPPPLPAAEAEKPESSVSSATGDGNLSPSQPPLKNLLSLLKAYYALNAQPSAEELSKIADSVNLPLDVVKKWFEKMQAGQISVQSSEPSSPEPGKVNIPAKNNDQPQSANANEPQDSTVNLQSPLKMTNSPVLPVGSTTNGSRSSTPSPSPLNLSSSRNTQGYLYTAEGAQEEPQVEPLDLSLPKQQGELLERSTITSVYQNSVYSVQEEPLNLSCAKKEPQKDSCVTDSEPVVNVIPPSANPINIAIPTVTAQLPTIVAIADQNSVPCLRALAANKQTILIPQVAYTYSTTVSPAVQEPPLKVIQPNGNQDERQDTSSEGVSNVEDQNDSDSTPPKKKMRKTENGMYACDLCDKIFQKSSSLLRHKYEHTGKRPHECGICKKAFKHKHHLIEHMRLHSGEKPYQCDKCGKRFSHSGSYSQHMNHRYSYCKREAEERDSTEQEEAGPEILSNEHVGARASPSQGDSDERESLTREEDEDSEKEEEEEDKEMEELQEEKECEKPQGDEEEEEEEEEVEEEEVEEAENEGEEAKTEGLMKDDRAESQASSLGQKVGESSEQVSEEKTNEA
UniProt O43167: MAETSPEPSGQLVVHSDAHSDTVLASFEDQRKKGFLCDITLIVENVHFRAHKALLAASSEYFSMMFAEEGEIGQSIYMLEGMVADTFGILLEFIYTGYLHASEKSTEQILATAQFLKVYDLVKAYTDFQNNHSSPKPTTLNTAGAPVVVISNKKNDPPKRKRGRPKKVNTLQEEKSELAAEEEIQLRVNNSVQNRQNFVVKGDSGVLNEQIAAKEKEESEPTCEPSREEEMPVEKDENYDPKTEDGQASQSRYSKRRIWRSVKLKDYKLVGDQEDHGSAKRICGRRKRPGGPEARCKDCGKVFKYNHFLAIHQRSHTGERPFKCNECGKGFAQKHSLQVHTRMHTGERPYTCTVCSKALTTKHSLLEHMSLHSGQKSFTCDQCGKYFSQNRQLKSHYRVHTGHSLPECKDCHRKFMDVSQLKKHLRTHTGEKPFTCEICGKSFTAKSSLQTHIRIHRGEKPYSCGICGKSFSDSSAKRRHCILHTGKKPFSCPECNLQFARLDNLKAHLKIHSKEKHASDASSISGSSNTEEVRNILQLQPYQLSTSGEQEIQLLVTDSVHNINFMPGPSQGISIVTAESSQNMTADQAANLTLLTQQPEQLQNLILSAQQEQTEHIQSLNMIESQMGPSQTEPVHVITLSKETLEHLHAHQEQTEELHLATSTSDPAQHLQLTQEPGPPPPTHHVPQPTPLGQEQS
UniProt Q8IUH4: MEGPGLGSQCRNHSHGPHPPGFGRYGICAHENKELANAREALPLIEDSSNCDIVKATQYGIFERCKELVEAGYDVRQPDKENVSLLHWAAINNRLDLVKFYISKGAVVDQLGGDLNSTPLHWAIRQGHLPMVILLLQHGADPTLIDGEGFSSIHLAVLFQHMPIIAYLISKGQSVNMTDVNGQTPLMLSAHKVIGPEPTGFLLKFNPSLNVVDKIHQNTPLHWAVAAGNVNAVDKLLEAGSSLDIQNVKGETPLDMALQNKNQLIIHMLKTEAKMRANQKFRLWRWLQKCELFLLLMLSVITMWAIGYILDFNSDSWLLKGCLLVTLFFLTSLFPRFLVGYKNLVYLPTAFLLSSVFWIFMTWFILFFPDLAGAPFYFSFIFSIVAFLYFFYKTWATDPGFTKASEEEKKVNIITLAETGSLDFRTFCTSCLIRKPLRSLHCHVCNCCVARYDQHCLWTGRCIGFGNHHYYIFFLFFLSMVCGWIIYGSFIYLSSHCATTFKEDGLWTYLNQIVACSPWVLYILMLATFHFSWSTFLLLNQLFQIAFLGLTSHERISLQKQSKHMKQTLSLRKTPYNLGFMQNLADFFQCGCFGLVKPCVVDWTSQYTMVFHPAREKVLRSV
UniProt Q8N5P1: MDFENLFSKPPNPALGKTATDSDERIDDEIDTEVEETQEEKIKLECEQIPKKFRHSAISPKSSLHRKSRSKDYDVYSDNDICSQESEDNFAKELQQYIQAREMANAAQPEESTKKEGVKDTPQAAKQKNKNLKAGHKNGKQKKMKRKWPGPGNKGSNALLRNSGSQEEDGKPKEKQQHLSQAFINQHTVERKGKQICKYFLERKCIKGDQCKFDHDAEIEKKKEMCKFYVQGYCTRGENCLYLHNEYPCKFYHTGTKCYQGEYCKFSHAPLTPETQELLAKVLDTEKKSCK
UniProt Q9NUE0: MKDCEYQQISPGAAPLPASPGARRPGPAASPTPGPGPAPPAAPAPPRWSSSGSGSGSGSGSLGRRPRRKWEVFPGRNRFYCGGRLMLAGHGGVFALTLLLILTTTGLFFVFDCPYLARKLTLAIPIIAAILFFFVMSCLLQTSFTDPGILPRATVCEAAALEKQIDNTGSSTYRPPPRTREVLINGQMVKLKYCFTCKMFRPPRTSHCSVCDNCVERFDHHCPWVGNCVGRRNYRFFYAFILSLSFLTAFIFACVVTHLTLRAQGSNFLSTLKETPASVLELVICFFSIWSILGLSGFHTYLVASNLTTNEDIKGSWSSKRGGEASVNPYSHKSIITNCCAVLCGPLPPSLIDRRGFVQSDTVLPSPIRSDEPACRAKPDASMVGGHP
UniProt Q9UQR1: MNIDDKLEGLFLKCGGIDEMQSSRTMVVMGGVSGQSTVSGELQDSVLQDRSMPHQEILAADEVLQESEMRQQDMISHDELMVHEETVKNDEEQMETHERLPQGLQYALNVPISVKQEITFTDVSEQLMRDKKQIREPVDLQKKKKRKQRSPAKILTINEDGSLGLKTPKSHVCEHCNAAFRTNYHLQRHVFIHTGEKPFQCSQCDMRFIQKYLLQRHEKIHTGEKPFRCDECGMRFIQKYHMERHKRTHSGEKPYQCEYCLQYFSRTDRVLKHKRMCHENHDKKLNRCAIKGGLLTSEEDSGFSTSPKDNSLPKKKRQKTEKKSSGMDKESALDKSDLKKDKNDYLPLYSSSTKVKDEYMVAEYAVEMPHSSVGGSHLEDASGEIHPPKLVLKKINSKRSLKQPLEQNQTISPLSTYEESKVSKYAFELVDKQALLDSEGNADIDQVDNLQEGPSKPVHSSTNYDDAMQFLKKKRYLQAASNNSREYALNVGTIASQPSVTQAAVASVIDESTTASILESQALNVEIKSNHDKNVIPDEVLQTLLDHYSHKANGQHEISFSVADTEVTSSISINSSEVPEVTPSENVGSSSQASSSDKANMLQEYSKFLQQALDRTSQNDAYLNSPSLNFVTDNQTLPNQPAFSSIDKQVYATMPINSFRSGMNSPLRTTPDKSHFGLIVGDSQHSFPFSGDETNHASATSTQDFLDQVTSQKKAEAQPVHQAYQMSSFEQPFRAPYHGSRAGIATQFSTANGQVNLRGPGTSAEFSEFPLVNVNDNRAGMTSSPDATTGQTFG

Key:
Assay in all cases: log2 fold change, soluble protein after heating vs DMSO (PISA); higher = thermal stabilisation; K562 cells, 10 uM, 30 min; active = over 0.2 and 3.5 SD of the protein, either way, in both replicates (recomputed)
[1] = compound: NC(=O)Nc1cc(-c2cccc(F)c2)sc1C(=O)N[C@H]1CCCNC1
In short: (§1)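 Quantification of soluble protein used TMTpro 16plex LC-MS/MS, with channel sums equalised. Samples were the supernatant after 21,000xg for 90 min of pooled aliquots from K562 cells (2×10^6 cells/mL) treated with 10 μM compound for 30 min, heated for 3 min over 48°C-58°C, and extracted in PBS with 0.5% NP-40 at 4°C. Values, from duplicates, describe thermal stability against control samples on a log2 fold-change scale.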

[2] = compound: NC(=O)c1cnc(N[C@@H]2CCCC[C@@H]2N)nc1Nc1cccc(-n2nccn2)c1
In short: as §1

[3] = compound: NC1(c2ccc(-c3nc4ccn5c(=O)[nH]nc5c4cc3-c3ccccc3)cc2)CCC1
In short: as §1

[4] = compound: NCC(=O)Nc1ccc(-n2nc(C(F)(F)F)cc2-c2ccc3c(ccc4ccccc43)c2)cc1
In short: as §1

entinostat = compound: Nc1ccccc1NC(=O)c1ccc(CNC(=O)OCc2cccnc2)cc1 [entinostat]
In short: as §1

vorinostat = compound: O=C(CCCCCCC(=O)Nc1ccccc1)NO [vorinostat]
In short: as §1

citarinostat = compound: O=C(CCCCCCNC(=O)c1cnc(N(c2ccccc2)c2ccccc2Cl)nc1)NO [citarinostat]
In short: as §1

silmitasertib = compound: O=C(O)c1ccc2c(c1)nc(Nc1cccc(Cl)c1)c1ccncc12 [silmitasertib]
In short: as §1

[5] = compound: O=C1NC(=O)C(c2cnc3ccccn23)=C1c1cn2c3c(cc(F)cc13)CN(C(=O)N1CCCCC1)CC2
In short: as §1

[6] = compound: c1cc(OCCN2CCCCC2)cc(-c2n[nH]c3ccc(-c4nnc[nH]4)cc23)c1
In short: as §1

Target | log2 fold change [1] | log2 fold change [2] | log2 fold change [3] | log2 fold change [4] | log2 fold change (entinostat) | log2 fold change (vorinostat) | log2 fold change (citarinostat) | log2 fold change (silmitasertib) | log2 fold change [5] | log2 fold change [6]
ZADH2 (UniProt Q8N4Q0) | inactive: -0.074 | inactive: -0.025 | inactive: 0.106 | inactive: 0.017 | inactive: -0.04 | inactive: 0.002 | inactive: 0.106 | inactive: 0.053 | inactive: -0.043 | inactive: -0.017
YIPF4 (UniProt Q9BSR8) | inactive: 0.066 | inactive: 0.091 | inactive: -0.01 | inactive: -0.004 | inactive: -0.04 | inactive: -0.046 | inactive: 0.042 | inactive: -0.006 | inactive: -0.087 | inactive: -0.051
YAE1 (UniProt Q9NRH1) | inactive: -0.023 | inactive: -0.038 | inactive: 0.086 | inactive: -0.011 | inactive: 0.011 | inactive: 0.044 | inactive: 0.04 | inactive: -0.009 | inactive: -0.02 | inactive: -0.001
ZDHHC5 (UniProt Q9C0B5) | inactive: -0.081 | inactive: -0.01 | inactive: -0.027 | inactive: -0.005 | inactive: -0.034 | inactive: -0.02 | inactive: -0.022 | inactive: 0.101 | inactive: -0.014 | inactive: -0.076
ZCCHC9 (UniProt Q8N567) | inactive: -0.11 | inactive: 0.049 | inactive: 0.218 | inactive: -0.013 | inactive: -0.112 | inactive: -0.065 | inactive: -0.161 | inactive: 0.095 | inactive: 0.229 | inactive: -0.067
YRDC (UniProt Q86U90) | inactive: -0.067 | inactive: -0.04 | inactive: -0.057 | inactive: -0.023 | inactive: 0.003 | inactive: -0.008 | inactive: 0.053 | inactive: -0.019 | inactive: 0.004 | inactive: -0.004
YDJC (UniProt A8MPS7) | inactive: -0.014 | inactive: -0.002 | inactive: -0.046 | inactive: 0.031 | inactive: 0.017 | inactive: 0.013 | inactive: -0.025 | inactive: 0.083 | inactive: -0.087 | inactive: -0.019
XRCC5 (UniProt P13010) | inactive: -0.024 | inactive: -0.172 | inactive: -0.122 | inactive: -0.058 | inactive: 0.155 | inactive: 0.151 | inactive: 0.163 | inactive: 0.019 | inactive: -0.096 | inactive: -0.041
ZMAT2 (UniProt Q96NC0) | active: 0.282 | inactive: 0.079 | inactive: 0.043 | inactive: 0.016 | inactive: 0.081 | inactive: -0.019 | inactive: 0.085 | inactive: 0.028 | inactive: 0.012 | inactive: 0.035
YPEL5 (UniProt P62699) | inactive: 0.114 | inactive: -0.019 | inactive: -0.026 | inactive: 0.129 | inactive: -0.187 | inactive: 0.028 | inactive: -0.077 | inactive: 0.116 | inactive: -0.064 | inactive: 0.067
YAF2 isoform 5 (UniProt Q8IY57) | inactive: -0.029 | inactive: -0.044 | inactive: 0.034 | inactive: 0 | inactive: -0.054 | inactive: 0.184 | inactive: 0.103 | inactive: -0.048 | inactive: 0.071 | inactive: -0.27
YWHAH (UniProt Q04917) | inactive: -0.045 | inactive: -0.003 | inactive: -0.045 | inactive: -0.017 | inactive: 0.018 | inactive: 0 | inactive: 0.032 | inactive: -0.037 | inactive: -0.058 | inactive: 0.006
XPNPEP1 isoform 3 (UniProt Q9NQW7) | inactive: -0.04 | inactive: -0.052 | inactive: -0.126 | inactive: -0.07 | inactive: 0.015 | active: 0.399 | inactive: 0.062 | inactive: -0.037 | inactive: -0.02 | inactive: 0.025
XPO4 (UniProt Q9C0E2) | inactive: -0.023 | inactive: -0.032 | inactive: -0.086 | inactive: -0.05 | inactive: 0 | inactive: 0.009 | inactive: 0.045 | inactive: 0.076 | inactive: -0.048 | inactive: -0.047
ZCCHC3 (UniProt Q9NUD5) | inactive: 0.022 | inactive: 0.06 | inactive: 0.169 | inactive: 0.058 | inactive: -0.028 | inactive: -0.034 | inactive: -0.102 | inactive: 0.111 | inactive: 0.136 | inactive: -0.18
ZMYM1 (UniProt Q5SVZ6) | inactive: -0.108 | inactive: -0.123 | inactive: 0.215 | inactive: 0.336 | inactive: -0.012 | inactive: -0.02 | inactive: -0.07 | inactive: 0.255 | inactive: 0.045 | inactive: -0.229

Six neighbouring records out of the list so far, quoted:
Target | log2 fold change [1] | log2 fold change [2] | log2 fold change [3] | log2 fold change [4] | log2 fold change (entinostat) | log2 fold change (vorinostat) | log2 fold change (citarinostat) | log2 fold change (silmitasertib) | log2 fold change [5] | log2 fold change [6]
ZMAT2 (UniProt Q96NC0) | active: 0.282 | inactive: 0.079 | inactive: 0.043 | inactive: 0.016 | inactive: 0.081 | inactive: -0.019 | inactive: 0.085 | inactive: 0.028 | inactive: 0.012 | inactive: 0.035
YPEL5 (UniProt P62699) | inactive: 0.114 | inactive: -0.019 | inactive: -0.026 | inactive: 0.129 | inactive: -0.187 | inactive: 0.028 | inactive: -0.077 | inactive: 0.116 | inactive: -0.064 | inactive: 0.067
YAF2 isoform 5 (UniProt Q8IY57) | inactive: -0.029 | inactive: -0.044 | inactive: 0.034 | inactive: 0 | inactive: -0.054 | inactive: 0.184 | inactive: 0.103 | inactive: -0.048 | inactive: 0.071 | inactive: -0.27
YWHAH (UniProt Q04917) | inactive: -0.045 | inactive: -0.003 | inactive: -0.045 | inactive: -0.017 | inactive: 0.018 | inactive: 0 | inactive: 0.032 | inactive: -0.037 | inactive: -0.058 | inactive: 0.006
XPNPEP1 isoform 3 (UniProt Q9NQW7) | inactive: -0.04 | inactive: -0.052 | inactive: -0.126 | inactive: -0.07 | inactive: 0.015 | active: 0.399 | inactive: 0.062 | inactive: -0.037 | inactive: -0.02 | inactive: 0.025
XPO4 (UniProt Q9C0E2) | inactive: -0.023 | inactive: -0.032 | inactive: -0.086 | inactive: -0.05 | inactive: 0 | inactive: 0.009 | inactive: 0.045 | inactive: 0.076 | inactive: -0.048 | inactive: -0.047

(list continues)

Target | log2 fold change [1] | log2 fold change [2] | log2 fold change [3] | log2 fold change [4] | log2 fold change (entinostat) | log2 fold change (vorinostat) | log2 fold change (citarinostat) | log2 fold change (silmitasertib) | log2 fold change [5] | log2 fold change [6]
YJU2 (UniProt Q9BW85) | inactive: -0.004 | inactive: 0.049 | inactive: 0.026 | inactive: -0.043 | inactive: -0.034 | inactive: -0.024 | inactive: 0.074 | inactive: 0.087 | inactive: -0.153 | inactive: -0.005
XPNPEP3 (UniProt Q9NQH7) | inactive: 0.034 | inactive: -0.007 | inactive: -0.074 | inactive: 0 | inactive: -0.024 | inactive: -0.002 | inactive: -0.007 | inactive: -0.004 | inactive: -0.02 | inactive: -0.022
ZC3H14 (UniProt Q6PJT7) | inactive: 0.095 | inactive: 0.096 | inactive: 0.021 | inactive: -0.072 | inactive: -0.051 | inactive: -0.04 | inactive: -0.012 | inactive: -0.002 | inactive: 0.129 | inactive: 0.046
YOD1 (UniProt Q5VVQ6) | inactive: -0.079 | inactive: -0.061 | inactive: -0.138 | inactive: -0.015 | inactive: -0.143 | inactive: 0.033 | inactive: 0.067 | inactive: 0.021 | inactive: -0.079 | inactive: 0.043
YLPM1 (UniProt P49750) | inactive: -0.023 | inactive: -0.034 | inactive: -0.046 | inactive: -0.069 | inactive: -0.064 | inactive: 0.024 | inactive: 0.099 | inactive: -0.009 | inactive: 0.026 | inactive: 0
ZEB1 isoform 2 (UniProt P37275) | inactive: 0.043 | inactive: -0.007 | inactive: 0.013 | inactive: 0 | inactive: 0.036 | inactive: 0.272 | inactive: 0.084 | inactive: -0.1 |  | inactive: 0.011
ZBTB24 (UniProt O43167) | inactive: 0.013 | inactive: 0.047 |  |  | inactive: -0.215 | inactive: -0.007 | inactive: 0.079 |  | inactive: 0.228 | inactive: -0.157
ZDHHC13 (UniProt Q8IUH4) | inactive: -0.014 | inactive: -0.051 |  |  | inactive: 0.011 |  | inactive: -0.326 |  | inactive: 0.224 | inactive: 0.154
YY1 (UniProt P25490) | inactive: 0.037 | inactive: -0.037 | inactive: 0.011 | inactive: -0.009 | inactive: 0.053 | inactive: 0.134 | inactive: 0.121 | inactive: 0.057 | inactive: -0.013 | inactive: -0.052
ZC3H8 (UniProt Q8N5P1) | inactive: 0.025 | inactive: 0.08 | inactive: 0.181 | inactive: 0.036 | inactive: -0.141 | inactive: -0.039 | inactive: -0.059 | inactive: 0.035 | inactive: 0 | inactive: -0.104
YEATS4 (UniProt O95619) | inactive: -0.026 | inactive: 0.049 | inactive: 0.03 | inactive: 0.065 | inactive: -0.009 | inactive: -0.036 | inactive: -0.052 | inactive: -0.013 | inactive: -0.118 | inactive: -0.047
ZC3H7B (UniProt Q9UGR2) | inactive: 0.132 |  | inactive: 0.274 |  | inactive: -0.095 | inactive: 0.198 | inactive: -0.042 | inactive: 0.352 |  | inactive: -0.27
ZDHHC18 (UniProt Q9NUE0) | inactive: -0.023 | inactive: 0.027 | inactive: -0.098 |  | inactive: -0.007 | inactive: -0.143 | inactive: -0.133 | inactive: -0.021 | inactive: 0.024 | inactive: 0.024
ZNF148 (UniProt Q9UQR1) | inactive: 0.285 | inactive: 0.16 | inactive: 0.058 |  | inactive: -0.093 | inactive: -0.225 |  | inactive: 0.06 | inactive: 0.136 | 
XPR1 (UniProt Q9UBH6) | inactive: -0.042 | inactive: -0.016 | inactive: -0.027 | inactive: 0.008 | inactive: 0.023 | inactive: 0.049 | inactive: -0.01 | inactive: -0.009 | inactive: -0.059 | inactive: -0.056
ZDHHC16 (UniProt Q969W1) | inactive: -0.097 |  |  | inactive: -0.082 | inactive: -0.125 |  | inactive: -0.036 |  |  | inactive: -0.068
